The source of these data is publication PMC8568920, “Serum apolipoprotein A-I potentiates the therapeutic efficacy of lysocin E against Staphylococcus aureus” (Nature Communications, 2021).

Structures are written as SMILES.

This series deals with MRSA MR6 strain. In words: Mouse systemic MRSA infection model, survival ED50. Type of series: in vivo. The conditions noted are these: ratio of mouse ED50 to in vitro MIC. The protocol: Mouse protocols followed the Regulations for Animal Care and Use of the University of Tokyo under approval by the Graduate School of Pharmaceutical Science at the University of Tokyo (approval nos. 24–55). Mice were housed in a group of at most five in a cage, kept in a room maintained at 23–24 °C, 55% humidity, and 12 h light/12 h dark cycle. For Table 1, clinically isolated MRSA MR6 strain[47] was cultured overnight, suspended in 7% type II porcine stomach mucin supplemented with 0.2 mM FeNH4-citrate and intraperitoneally administered to mice (ICR, female, 4 weeks of age) at 5.7 × 10^7 colony-forming units. Lysocin E (4–0.25 mg kg^−1), vancomycin (8–0.5 mg kg^−1), linezolid (8–0.5 mg kg^−1), or daptomycin (4–0.25 mg kg^−1) were administered subcutaneously to 5 animals/group at 1 h and 6 h after infection. Mouse survival was assessed after 5 days and ED50 values were calculated by multiple logistic regression analysis. For Fig. 1d, the Newman strain was cultured in TSB overnight and cells (4.0 × 10^7 colony-forming units) were washed in phosphate-buffered saline (PBS) were injected into the tail vein of 8–12-week-old female C57BL/6J wild-type mice or Apoa1 homozygous-deficient mice. After 2 h, lysocin E (0.5 mg kg^−1) was administered subcutaneously. After 24 h, the kidneys were harvested and crushed with a BioMasher II (Nippi Incorporated, Tokyo, Japan). The suspensions were diluted with PBS(−), plated on TSB agar medium and the number of colonies was counted.
Consider `CCCCCCCCCC(=O)N[C@@H](Cc1c[nH]c2ccccc12)C(=O)N[C@H](CC(N)=O)C(=O)N[C@@H](CC(=O)O)C(=O)N[C@@H]1C(=O)NCC(=O)N[C@@H](CCCN)C(=O)N[C@@H](CC(=O)O)C(=O)N[C@H](C)C(=O)N[C@@H](CC(=O)O)C(=O)NCC(=O)N[C@H](CO)C(=O)N[C@@H]([C@H](C)CC(=O)O)C(=O)N[C@@H](CC(=O)c2ccccc2N)C(=O)O[C@@H]1C` [Daptomycin, daptomycin], for which the ED50/MIC stood at 1.6.

On to `CC(=O)NC[C@H]1CN(c2ccc(N3CCOCC3)c(F)c2)C(=O)O1` [Linezolid, linezolid], for which the ED50/MIC turned out to be 1.9.

`CN[C@H](CC(C)C)C(=O)N[C@H]1C(=O)N[C@@H](CC(N)=O)C(=O)N[C@H]2C(=O)N[C@H]3C(=O)N[C@H](C(=O)N[C@H](C(=O)O)c4cc(O)cc(O)c4-c4cc3ccc4O)[C@H](O)c3ccc(c(Cl)c3)Oc3cc2cc(c3O[C@@H]2O[C@H](CO)[C@@H](O)[C@H](O)[C@H]2O[C@H]2C[C@](C)(N)[C@H](O)[C@H](C)O2)Oc2ccc(cc2Cl)[C@H]1O` [Vancomycin, vancomycin]: the ED50/MIC was determined as 4.2.
